Data on one molecule can be found in patent US20210047417A1.

These are yes or no findings as the source states them, for the method shown. Some binding calls cover weakened binding; strength is not graded here.

The target in this assay is T1, Recombinant MICB protein (UniProt Q29980).
T1 sequence (looked up): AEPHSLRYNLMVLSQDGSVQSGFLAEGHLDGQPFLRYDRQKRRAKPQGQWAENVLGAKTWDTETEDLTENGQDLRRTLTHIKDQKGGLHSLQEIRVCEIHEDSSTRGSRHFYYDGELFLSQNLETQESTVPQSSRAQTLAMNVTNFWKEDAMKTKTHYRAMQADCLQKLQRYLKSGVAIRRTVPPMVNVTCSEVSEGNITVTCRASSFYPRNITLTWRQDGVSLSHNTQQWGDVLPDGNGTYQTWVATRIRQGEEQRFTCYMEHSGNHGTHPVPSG
The assay can be described thus: ELISA, antigen coated, PDI-1 0-1 µg/ml (legend of FIG. 2). (An ELISA detects its analyte on a solid surface through an enzyme-linked reagent.)

B1: Anti-MICA/B Monoclonal Antibody (PDI-1) (antibody, mouse IgG2a, kappa, V domains shown)
VH: QIQLVQSGPELKKSGETVKISCKAFGYTFTNYGMNWVKQAPGKGLKWMGWINTYTGEPTYADDFKGRFAFSLETSASTAYLQINHLKNEDTATYFCARNYGNYLFDYWGQGTTLTVSS
VL: DIQMTQTTSSLSASLGDRVTISCSASQGISNYLNWYQQKPDGTLKLLIQYTSLLHSGVPSRFSGSGSGTEYSLTISNLEPEDIATYFCQQYSKFPRTFGGGTKLEIKR
On to B1, for which the binding entry is recorded as “binds”.
